Reference: patent US11364222B2, “Combination therapy for treatment of cancer” (G1 Therapeutics, Inc., priority 2017, dated 2022)

Tested on: MCF-7 cells
Test: MCF7 7 day proliferation assay in the presence of 0.1 nM E2 (Hoechst DNA content)
Format: cell-based
Conditions: Homo sapiens, MCF7, 168 h, read-out: IC50, MCF7 proliferation

Work on `CC/C(=C(\c1ccccc1)c1ccc(OCCN(C)C)cc1)c1ccccc1` [tamoxifen, Tamoxifen] yielded an IC50 of 985 nM.
